Experimental data: PMC10724427
These are yes or no findings as the source states them, for the method shown. In cells and extracts the contact can be indirect. Some results given as binding are weak or reduced against the parent protein; the word gives no strength.

The chains behind the UniProt entries cited, without tags or fusion partners.
UniProt Q14814: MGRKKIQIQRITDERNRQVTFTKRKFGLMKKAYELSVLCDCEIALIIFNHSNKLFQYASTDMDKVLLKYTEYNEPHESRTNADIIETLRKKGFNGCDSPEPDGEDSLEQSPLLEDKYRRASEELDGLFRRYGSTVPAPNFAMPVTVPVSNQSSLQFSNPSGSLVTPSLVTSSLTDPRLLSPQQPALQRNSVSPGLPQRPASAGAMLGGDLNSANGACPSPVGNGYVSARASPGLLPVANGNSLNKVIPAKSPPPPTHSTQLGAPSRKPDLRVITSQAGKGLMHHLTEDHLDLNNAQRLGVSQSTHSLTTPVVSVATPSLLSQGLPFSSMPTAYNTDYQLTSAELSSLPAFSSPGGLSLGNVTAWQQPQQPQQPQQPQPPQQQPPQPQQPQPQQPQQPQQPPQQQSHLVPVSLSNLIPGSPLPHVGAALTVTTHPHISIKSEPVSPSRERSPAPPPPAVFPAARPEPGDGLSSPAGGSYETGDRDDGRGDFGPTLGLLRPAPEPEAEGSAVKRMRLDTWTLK
UniProt Q13418: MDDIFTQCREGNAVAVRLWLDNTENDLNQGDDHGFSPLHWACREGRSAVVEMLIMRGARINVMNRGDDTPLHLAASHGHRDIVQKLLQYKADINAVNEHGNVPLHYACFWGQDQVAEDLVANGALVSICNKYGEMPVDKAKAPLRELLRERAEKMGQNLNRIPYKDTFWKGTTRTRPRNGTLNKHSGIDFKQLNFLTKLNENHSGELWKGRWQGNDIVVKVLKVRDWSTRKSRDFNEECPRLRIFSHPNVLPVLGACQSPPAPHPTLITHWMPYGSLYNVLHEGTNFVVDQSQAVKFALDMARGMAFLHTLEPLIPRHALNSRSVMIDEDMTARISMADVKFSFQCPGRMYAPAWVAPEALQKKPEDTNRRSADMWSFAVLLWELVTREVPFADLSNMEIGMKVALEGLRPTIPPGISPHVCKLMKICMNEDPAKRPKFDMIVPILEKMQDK
UniProt Q00987: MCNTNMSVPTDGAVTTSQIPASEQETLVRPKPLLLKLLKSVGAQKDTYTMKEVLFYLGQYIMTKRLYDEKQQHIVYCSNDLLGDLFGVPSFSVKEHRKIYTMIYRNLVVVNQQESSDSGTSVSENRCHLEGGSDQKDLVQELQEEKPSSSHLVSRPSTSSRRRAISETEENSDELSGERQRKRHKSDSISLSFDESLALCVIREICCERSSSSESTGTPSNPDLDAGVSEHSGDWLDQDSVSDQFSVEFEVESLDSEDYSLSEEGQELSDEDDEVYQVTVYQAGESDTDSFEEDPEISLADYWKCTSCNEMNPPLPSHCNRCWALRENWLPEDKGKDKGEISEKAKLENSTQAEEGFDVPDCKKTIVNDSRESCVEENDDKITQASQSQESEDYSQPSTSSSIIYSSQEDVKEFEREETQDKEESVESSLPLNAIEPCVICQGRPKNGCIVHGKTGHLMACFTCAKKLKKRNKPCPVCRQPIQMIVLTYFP

How the values were obtained:
[1] = target: myocyte enhancer factor 2D (human (endogenous in Hep3B)) (UniProt Q14814); assay: co-IP; endogenous proteins in Hep3B lysates; cells untreated or treated with FN or NETs-DNA, with or without the FAK inhibitor PF562271 (10 µM); USP14-depleted cells as control; Protein A/G magnetic beads, 4 °C overnight; immunoblot
[2] = target: integrin‐linked kinase (human (endogenous in Hep3B)) (UniProt Q13418); assay: co-IP; anti-ILK immunoprecipitates from lysates of Hep3B cells treated with or without NETs; endogenous proteins; IgG isotype control; immunoblot

binding [1]	binding [2]	Molecule
binds		MDM2 (from UniProt Q00987 1-491)
	binds	β‐Parvin (protein, UniProt Q9HBI1 1-364) MSSAPRSPTPRPRRMKKDESFLGKLGGTLARKRRAREVSDLQEEGKNAINSPMSPALVDVHPEDTQLEENEERTMIDPTSKEDPKFKELVKVLLDWINDVLVEERIIVKQLEEDLYDGQVLQKLLEKLAGCKLNVAEVTQSEIGQKQKLQTVLEAVHDLLRPRGWALRWSVDSIHGKNLVAILHLLVSLAMHFRAPIRLPEHVTVQVVVVRKREGLLHSSHISEELTTTTEMMMGRFERDAFDTLFDHAPDKLSVVKKSLITFVNKHLNKLNLEVTELETQFADGVYLVLLMGLLEDYFVPLHHFYLTPESFDQKVHNVSFAFELMLDGGLKKPKARPEDVVNLDLKSTLRVLYNLFTKYKNVE
